Source: PubChem BioAssay AID256 (DTP/NCI, 2004)
The list does not hold the whole screen: it covers a few groups of compounds. Other doses and runs of a compound may be missing. T/C is the treated group as % of the vehicle group. Some entries give survivors of the animals treated and no T/C: the source files T/C as zero there, which appears to mark a toxic dose or a test without result, not a measured value. Some doses without a T/C left all or most animals alive at the check, yet need not have been tolerated: survival well below the control is almost never listed, so the zero probably covers shortened survival too. Survivors were counted at the toxicity check, usually on the fifth day, unless a day is given; later deaths do not show. Schedule codes are those of the source, taken here to give the interval after Q, in days (D) or hours (H), and the number of doses after X. For survival time, the PubChem record calls one and a half times the control and up active, and a quarter to a half above the control has no call in these data; cut-offs in other NCI protocols can differ. Marks such as (2×) stand for listed records that agree. Some entries hold several experiments; the values are given in rising order. Some structures stand for samples that the source files as different forms (salt, stereo form or complex); doses refer to the form tested. Some T/C values are marked as having no survivor count here; that says nothing about deaths at the dose. Some T/C values carry the count of animals alive at the toxicity check (mostly the fifth day); where neither a count nor a note follows, no animal had died by that day.

System: CD2F1 mice, L1210 leukemia ip, survival T/C
Experiment: NCI In Vivo Anticancer Drug Screen. Data for tumor model L1210 Leukemia (intraperitoneal) in CD2F1 (CDF1) mice
Details: T/C endpoint: mean survival time, higher T/C = longer survival
Procedure, shortened: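 Transplantable tumor in mice; compound-treated vs vehicle-treated groups. Read-out = treated/control ratio of the measured endpoint.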

[1] = dose: 100.0 mg/kg/injection, schedule: Q04DX003 (ip), vehicle: saline with Tween-80
[2] = dose: 200.0 mg/kg/injection, schedule: Q04DX003 (ip), vehicle: saline with Tween-80
[3] = dose: 400.0 mg/kg/injection, schedule: Q04DX003 (ip), vehicle: saline with Tween-80
[4] = dose: 31.25 mg/kg/injection, schedule: Q01DX001 (ip), vehicle: DMSO
[5] = dose: 62.5 mg/kg/injection, schedule: Q01DX001 (ip), vehicle: DMSO
[6] = dose: 125.0 mg/kg/injection, schedule: Q01DX001 (ip), vehicle: DMSO
[7] = dose: 250.0 mg/kg/injection, schedule: Q01DX001 (ip), vehicle: DMSO
[8] = dose: 500.0 mg/kg/injection, schedule: Q01DX001 (ip), vehicle: DMSO
[9] = dose: 50.0 mg/kg/injection, schedule: Q04DX002 (ip), vehicle: saline with Tween-80
[10] = dose: 100.0 mg/kg/injection, schedule: Q04DX002 (ip), vehicle: saline with Tween-80
[11] = dose: 75.0 mg/kg/injection, schedule: Q01DX001 (ip), vehicle: saline
[12] = dose: 200.0 mg/kg/injection, schedule: Q01DX001 (ip), vehicle: DMSO
[13] = dose: 400.0 mg/kg/injection, schedule: Q01DX001 (ip), vehicle: DMSO

Q: Which results are given for `O=[N+]([O-])c1cc([N+](=O)[O-])c(Nc2ccc(Cl)cc2)c([N+](=O)[O-])c1`?
A: T/C [1]: 101 % of control [survivor count not shown]; T/C [2]: 103 % of control [survivor count not shown]; T/C [3]: 100 % of control [survivor count not shown]

Q: How did the T/C (dose: 75.0 mg/kg/injection, schedule: Q01DX001 (ip), vehicle: other) turn out when `CCN(CC)CCOC(=O)C(O)(c1ccc(C)cc1)c1ccc(C)cc1` was run?
A: 103 % of control

Q: What about the survivor count (dose: 150.0 mg/kg/injection, schedule: Q01DX001 (ip), vehicle: other) of the same compound?
A: 0 of 6

Q: And the survivor count (dose: 300.0 mg/kg/injection, schedule: Q01DX001 (ip), vehicle: other)?
A: 0 of 6

Q: Which results are given for `C#CCCOP(N)(=O)N(CCCl)CCCl` (centres undefined)?
A: T/C (dose: 15.63 mg/kg/injection, schedule: Q01DX001 (ip), vehicle: DMSO): 98 % of control; T/C [4]: 104 % of control; T/C [5]: 98 % of control; T/C [6]: 97 % of control; T/C [7]: 92 % of control; T/C [8]: 105 % of control [5 of 6 alive]; survivor count (dose: 1000.0 mg/kg/injection, schedule: Q01DX001 (ip), vehicle: DMSO): 0 of 6

Q: `CC(C)N=C(N)C(N)=NC(C)C.O=[N+]([O-])c1cc([N+](=O)[O-])c(O)c([N+](=O)[O-])c1` was tested. Which T/C [9] did it give?
A: 88 % of control [survivor count not shown]

Q: And the T/C [10]?
A: 100 % of control [survivor count not shown]

Q: And the T/C (dose: 200.0 mg/kg/injection, schedule: Q04DX002 (ip), vehicle: saline with Tween-80)?
A: 96 % of control [survivor count not shown]

Q: Which T/C (dose: 12.5 mg/kg/injection, schedule: Q01DX005 (ip), vehicle: water) does the source give for `Cc1cn(C2CC3O[P@](C)(=O)OCC3O2)c(=O)[nH]c1=O` (some centres undefined) here?
A: 101 % of control

Q: And the T/C (dose: 25.0 mg/kg/injection, schedule: Q01DX005 (ip), vehicle: water)?
A: 107 % of control

Q: What about the T/C (dose: 50.0 mg/kg/injection, schedule: Q01DX005 (ip), vehicle: water) of the same compound?
A: 107 % of control

Q: What about the T/C (dose: 100.0 mg/kg/injection, schedule: Q01DX005 (ip), vehicle: water) of the same compound?
A: 101 % of control

Q: And the T/C (dose: 200.0 mg/kg/injection, schedule: Q01DX005 (ip), vehicle: water)?
A: 107 % of control

Q: `O=C(OC1CN2CCC1CC2)c1ccccc1O` (centres undefined) was tested. Which T/C (dose: 6.25 mg/kg/injection, schedule: Q01DX009 (ip), vehicle: saline with Tween-80) did it give?
A: 97 % of control

Q: What about the T/C (dose: 12.5 mg/kg/injection, schedule: Q01DX009 (ip), vehicle: saline with Tween-80) of the same compound?
A: 100 % of control

Q: And the T/C (dose: 25.0 mg/kg/injection, schedule: Q01DX009 (ip), vehicle: saline with Tween-80)?
A: 100 % of control

Q: What about the survivor count [1] of the same compound?
A: 2 of 6

Q: And the survivor count [2]?
A: 0 of 6

Q: And the survivor count [3]?
A: 0 of 6

Q: `O=P1(N(CCCl)CCCl)OCC(CCl)O1` (centres undefined) was tested. Which T/C (dose: 62.5 mg/kg/injection, schedule: Q01DX001 (ip), vehicle: other) did it give?
A: 101 % of control

Q: What about the T/C (dose: 125.0 mg/kg/injection, schedule: Q01DX001 (ip), vehicle: other) of the same compound?
A: 107 % of control

Q: What about the T/C (dose: 250.0 mg/kg/injection, schedule: Q01DX001 (ip), vehicle: other) of the same compound?
A: 122 % of control

Q: And the survivor count (dose: 500.0 mg/kg/injection, schedule: Q01DX001 (ip), vehicle: other)?
A: 3 of 6

Q: What does the source list for `CCCc1cccc2nc(-c3ccccc3)oc12.O=C1c2cc([N+](=O)[O-])ccc2-c2c1cc([N+](=O)[O-])cc2[N+](=O)[O-]`?
A: T/C (dose: 25.0 mg/kg/injection, schedule: Q01DX001 (ip), vehicle: saline with Tween-80): 101 % of control [survivor count not shown]; T/C (dose: 50.0 mg/kg/injection, schedule: Q01DX001 (ip), vehicle: saline with Tween-80): 91 % of control [survivor count not shown]; T/C [9]: 87 % of control [survivor count not shown]; T/C (dose: 100.0 mg/kg/injection, schedule: Q01DX001 (ip), vehicle: saline with Tween-80): 93 % of control [survivor count not shown]; T/C [10]: 90 % of control [survivor count not shown]

Q: `ClP1(Cl)=NP(Cl)(Cl)=NP2(=N1)NCCO2` (centres undefined) was tested. Which T/C [11] did it give?
A: 106 % of control

Q: What about the T/C (dose: 150.0 mg/kg/injection, schedule: Q01DX001 (ip), vehicle: saline) of the same compound?
A: 101 % of control

Q: And the T/C (dose: 300.0 mg/kg/injection, schedule: Q01DX001 (ip), vehicle: saline)?
A: 93 % of control [4 of 6 alive]

Q: Which results are given for `Nc1ccc(CCCCc2cccc(S(=O)(=O)F)c2)c(Cl)c1.O=[N+]([O-])c1cc([N+](=O)[O-])c(O)c([N+](=O)[O-])c1`?
A: T/C (dose: 25.0 mg/kg/injection, schedule: Q01DX009 (ip), vehicle: acetone): 100 % of control; T/C (dose: 50.0 mg/kg/injection, schedule: Q01DX009 (ip), vehicle: acetone): 93 % of control; T/C (dose: 100.0 mg/kg/injection, schedule: Q01DX009 (ip), vehicle: acetone): 100 % of control; T/C [1]: 97 % of control; survivor count [2]: 3 of 6; survivor count [3]: 0 of 6

Q: How did the T/C [11] turn out when `CCN(CC)CCOC(=O)C(O)(c1ccccc1)c1c(C)cccc1C` (centres undefined) was run?
A: 102 and 104 % of control

Q: What does the source list for `O=P(OCCCO)(N(CCCl)CCCl)N1CC1` (centres undefined)?
A: T/C (dose: 25.0 mg/kg/injection, schedule: Q01DX001 (ip), vehicle: DMSO, evaluated on day 35): 97 % of control; T/C (dose: 25.0 mg/kg/injection, schedule: Q01DX001 (ip), vehicle: DMSO, evaluated on day 45): 111 % of control; T/C (dose: 50.0 mg/kg/injection, schedule: Q01DX001 (ip), vehicle: DMSO, evaluated on day 35): 100 % of control; T/C (dose: 50.0 mg/kg/injection, schedule: Q01DX001 (ip), vehicle: DMSO, evaluated on day 45): 138 % of control; T/C (dose: 100.0 mg/kg/injection, schedule: Q01DX001 (ip), vehicle: DMSO, evaluated on day 35): 106 % of control; T/C (dose: 100.0 mg/kg/injection, schedule: Q01DX001 (ip), vehicle: DMSO, evaluated on day 45): 156 % of control [5 of 6 alive]; T/C [12]: 135 % of control; survivor count [12]: 0 of 6; T/C [13]: 131 % of control [5 of 6 alive]; survivor count [13]: 0 of 6

Q: For `O=P1(N(CCCl)CCCl)NC(CO)CO1` (centres undefined), which T/C (dose: 6.25 mg/kg/injection, schedule: Q01DX009 (ip), vehicle: water) is on record?
A: 94 and 95 % of control

Q: What about the T/C (dose: 12.5 mg/kg/injection, schedule: Q01DX009 (ip), vehicle: water) of the same compound?
A: 94 and 95 % of control

Q: What about the T/C (dose: 15.62 mg/kg/injection, schedule: Q01DX001 (ip), vehicle: DMSO) of the same compound?
A: 97 % of control

Q: And the T/C (dose: 23.3 mg/kg/injection, schedule: Q01DX001 (ip), vehicle: water)?
A: 97 and 98 % of control

Q: What about the T/C (dose: 25.0 mg/kg/injection, schedule: Q01DX009 (ip), vehicle: water) of the same compound?
A: 94 and 100 % of control

Q: And the T/C [4]?
A: 106 % of control

Q: What about the T/C (dose: 38.9 mg/kg/injection, schedule: Q01DX001 (ip), vehicle: water) of the same compound?
A: 101 % of control (2×)

Q: What about the T/C (dose: 50.0 mg/kg/injection, schedule: Q01DX009 (ip), vehicle: water) of the same compound?
A: 97 and 100 % of control

Q: What about the T/C [5] of the same compound?
A: 108 % of control

Q: And the T/C (dose: 64.8 mg/kg/injection, schedule: Q01DX001 (ip), vehicle: water)?
A: 98 % of control (2×)

Q: What about the T/C (dose: 100.0 mg/kg/injection, schedule: Q01DX009 (ip), vehicle: water) of the same compound?
A: 97 and 105 % of control

Q: What about the T/C (dose: 108.0 mg/kg/injection, schedule: Q01DX001 (ip), vehicle: water) of the same compound?
A: 101 % of control (2×)

Q: What about the T/C [6] of the same compound?
A: 124 % of control

Q: What about the T/C (dose: 180.0 mg/kg/injection, schedule: Q01DX001 (ip), vehicle: water) of the same compound?
A: 101 and 103 % of control

Q: And the T/C (dose: 200.0 mg/kg/injection, schedule: Q01DX009 (ip), vehicle: water)?
A: 103 and 114 % of control

Q: What about the T/C [7] of the same compound?
A: 132 % of control

Q: What about the T/C (dose: 300.0 mg/kg/injection, schedule: Q01DX001 (ip), vehicle: water) of the same compound?
A: 103 and 104 % of control

Q: What about the survivor count [8] of the same compound?
A: 6 of 6
